These are yes or no findings as the source states them, for the method shown. For some of these results: In cells and extracts the contact can be indirect. Some results given as binding are weak or reduced against the parent protein; the word gives no strength. For some of these results: Tags and fused reporters may be left off the sequences shown.
Experiments:
[1] = biological target: T1, FLAG-tagged recombinant human LRG1 (leucine-rich α2-glycoprotein-1) (human) (UniProt P02750); experiment: co-IP; FLAG-LRG1 (1 μg) incubated with TGF-β1 (0.2 μg), horse Cyt c (2 μg) or both; Cyt c in 8-fold molar excess to LRG1 and 20-fold to TGF-β1; immunoprecipitated with anti-FLAG antibody-coupled agarose; western blots for Cyt c and TGF-β1; only the binder purified
T1 sequence: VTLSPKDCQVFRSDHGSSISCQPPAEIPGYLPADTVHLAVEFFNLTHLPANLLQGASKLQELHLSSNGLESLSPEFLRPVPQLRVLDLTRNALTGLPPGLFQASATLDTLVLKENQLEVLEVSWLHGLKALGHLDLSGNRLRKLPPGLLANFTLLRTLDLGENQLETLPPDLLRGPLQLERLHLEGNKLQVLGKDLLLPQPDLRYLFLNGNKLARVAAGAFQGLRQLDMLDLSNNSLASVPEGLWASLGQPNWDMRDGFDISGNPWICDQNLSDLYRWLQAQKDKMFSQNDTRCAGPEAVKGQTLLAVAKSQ

Sequences of proteins named here, by UniProt entry; tags and fusion partners are left off. Residues count along the entry.
UniProt P00004: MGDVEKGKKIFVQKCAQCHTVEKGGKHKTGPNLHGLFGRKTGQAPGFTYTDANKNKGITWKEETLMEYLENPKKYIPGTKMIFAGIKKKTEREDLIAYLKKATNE
UniProt P01137, residues 279-390: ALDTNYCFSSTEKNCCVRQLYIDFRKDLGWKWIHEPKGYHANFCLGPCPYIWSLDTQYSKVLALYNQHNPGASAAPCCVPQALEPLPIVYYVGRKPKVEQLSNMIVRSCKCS

[2] = biological target: T1, FLAG-tagged recombinant human LRG1 (leucine-rich α2-glycoprotein-1) (human); experiment: co-IP; competition: TGF-β1 (25 ng) incubated with FLAG-LRG1 (100 ng) and increasing horse Cyt c (0-1 μg); LRG1 complexes immunoprecipitated with anti-FLAG antibody-coupled agarose; TGF-β1 seen by western blot; only the binder purified
[3] = biological target: Cyt c conjugated to Sepharose 4B beads (UniProt P00004); experiment: pull-down; mini-column of 0.5 ml Cyt c-conjugated Sepharose 4B (10 mg protein per ml beads) regenerated in PBS pH 7.5; purified urine LRG1 (10 μg) applied to the column; both purified

Molecule: horse cytochrome c (from UniProt P00004 1-105)
- binding [1]: binds

Molecule: recombinant human transforming growth factor-beta 1 (TGF-β1) (from UniProt P01137 279-390) (ligand)
- binding [1]: binds
- binding [2]: binds

B1: LRG1 purified from urine of an appendicitis patient (protein, UniProt P02750 36-347)
chain: VTLSPKDCQVFRSDHGSSISCQPPAEIPGYLPADTVHLAVEFFNLTHLPANLLQGASKLQELHLSSNGLESLSPEFLRPVPQLRVLDLTRNALTGLPPGLFQASATLDTLVLKENQLEVLEVSWLHGLKALGHLDLSGNRLRKLPPGLLANFTLLRTLDLGENQLETLPPDLLRGPLQLERLHLEGNKLQVLGKDLLLPQPDLRYLFLNGNKLARVAAGAFQGLRQLDMLDLSNNSLASVPEGLWASLGQPNWDMRDGFDISGNPWICDQNLSDLYRWLQAQKDKMFSQNDTRCAGPEAVKGQTLLAVAKSQ
- binding [3]: binds

Source: publication PMC8531642
